Here are results for three substances from article PMC7312009.

Amino acid sequences for entries named in this document (tags omitted).
UniProt Q9NRC8: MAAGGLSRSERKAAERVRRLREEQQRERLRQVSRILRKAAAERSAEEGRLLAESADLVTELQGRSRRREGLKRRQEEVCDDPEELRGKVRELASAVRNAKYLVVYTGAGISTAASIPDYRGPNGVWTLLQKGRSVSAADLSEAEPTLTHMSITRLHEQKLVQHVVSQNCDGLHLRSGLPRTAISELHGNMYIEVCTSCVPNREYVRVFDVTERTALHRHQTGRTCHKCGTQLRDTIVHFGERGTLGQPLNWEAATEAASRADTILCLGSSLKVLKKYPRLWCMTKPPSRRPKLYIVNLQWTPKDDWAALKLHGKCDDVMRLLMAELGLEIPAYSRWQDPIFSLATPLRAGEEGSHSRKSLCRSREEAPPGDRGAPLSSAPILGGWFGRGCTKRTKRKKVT

Assay [1] concerns the target T1, Flag-STRAP (WT), serine-threonine kinase receptor-associated protein (UniProt Q9Y3F4).
T1 sequence: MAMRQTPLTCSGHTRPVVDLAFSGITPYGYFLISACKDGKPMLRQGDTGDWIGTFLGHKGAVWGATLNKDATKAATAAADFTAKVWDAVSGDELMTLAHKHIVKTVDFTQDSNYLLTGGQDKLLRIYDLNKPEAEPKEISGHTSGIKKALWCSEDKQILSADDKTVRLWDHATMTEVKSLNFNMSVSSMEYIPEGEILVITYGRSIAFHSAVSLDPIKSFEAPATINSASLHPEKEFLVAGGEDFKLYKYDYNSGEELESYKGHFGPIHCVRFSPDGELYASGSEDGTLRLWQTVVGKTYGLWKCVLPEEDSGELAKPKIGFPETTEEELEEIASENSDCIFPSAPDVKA
As to the kind of experiment: co-IP; HEK293T co-transfected with tagged STRAP and tagged SIRT7 (Figure 3D: Flag-STRAP, HA-SIRT7, with or without HA-CBP); whole-cell lysates in BC100 buffer; anti-Flag M2 beads; Western blotting.

Assay [2] deals with T2, endogenous STRAP (HEK293T) (human (endogenous in HEK293T)) (UniProt Q9Y3F4).
T2 sequence: T1 sequence
As to the kind of experiment: co-IP; endogenous proteins; whole HEK293T cell lysates immune-precipitated with control IgG, anti-SIRT7 or anti-STRAP antibodies; Western blotting.

Assay [3] concerns the target T3, Flag-STRAP-3KR expressed in HCT116 cells (UniProt Q9Y3F4).
T3 sequence: T1 sequence with K147R, K148R, K156R
Nature of the assay: co-IP; HCT116 transfected with Flag-STRAP WT, 3KR or 3KQ for 24 h; whole-cell lysates immune-precipitated with M2 beads; Western blotting for p53.

Assay [4] concerns the target T4, Flag-STRAP-WT expressed in HCT116 cells (UniProt Q9Y3F4).
T4 sequence: T1 sequence
Described as above.

Changes are numbered by the printed parent chain. These are yes or no findings as the source states them, for the method shown. Binding seen in cells or lysates may run through a third protein. Some results given as binding are weak or reduced against the parent protein; the word gives no strength. For some of these results: Where a sequence is shown, tags or fusion partners need not be part of it.

In the case of “HA-SIRT7, sirtuin7 (from UniProt Q9NRC8 1-400) (enzyme)”, in assay [1], the binding result was “binds”.
Consider “endogenous SIRT7 (HEK293T) (from UniProt Q9NRC8 1-400) (enzyme)”, for which the binding entry in assay [2] is listed as “binds”.
As for “p53 (endogenous, HCT116) (from UniProt P04637 1-393)”, the binding entry in assay [3] and in assay [4] was “binds” throughout.
